The source of these data is US9409952B2 (Chugai Seiyaku Kabushiki Kaisha, priority 2011, dated 2016).

Positions of bridges follow the written chain, without caps; N, C: chain ends. Non-standard residues stand in square brackets, D forms with d. *: point of attachment. NMeF = CN[C@@H](Cc1ccccc1)C(=O)O; PhLac = O=C(O)[C@@H](O)Cc1ccccc1; NMeL = CN[C@@H](CC(C)C)C(=O)O; NMeV = CN[C@H](C(=O)O)C(C)C; NMeA = CN[C@@H](C)C(=O)O; Piperidide = C1CCN(*)CC1; StBu = CC(C)(C)S*; Sar = CNCC(=O)O

Data set [1] in a line: general procedure: Fmoc solid-phase peptide synthesis; Sieber Amide Resin; DIC/HOAt. The conditions noted are these: whole synthesis; for isolated yield: scale of the general procedure 250 to 300 mg resin per column.
The nature of data set [2]: general procedure: Fmoc solid-phase peptide synthesis; 2-Chlorotrityl resin (Fmoc-Asp-OBn); DIC/HOAt. To be noted: whole synthesis, scale 1.36 mmol.
Data set [3] in a line: general procedure: Fmoc solid-phase peptide synthesis; Sieber Amide resin; DIC/HOAt. To be noted: whole synthesis.
A short description of data set [4]: general procedure: Fmoc solid-phase peptide synthesis; Fmoc-Ala-O-Trt(2-Cl) resin; DIC/HOAt. The conditions noted are these: whole synthesis.
A short description of data set [5]: general procedure: Fmoc solid-phase peptide synthesis; 2-Chlorotrityl resin; DIC/HOAt. To be noted: whole synthesis, scale of the general procedure 250 to 300 mg resin per column.
Data set [6] can be described thus: general procedure: Fmoc solid-phase peptide synthesis; Fmoc-Asp(O-Trt(2-Cl)-Resin)-MePhe-Ala-pip; DIC/HOAt. The conditions noted are these: whole synthesis.

For the substance “Acbz-Cys(StBu)-Lys(Me2)-Trp-^HOGly-Pro-Lys(Acbz-Thz)-Asp-Pro-NH2”, in data set [1], the isolated mass worked out at 179 mg and the isolated yield came out at 13%.
With “H-Cys(CH2CONH2)-Thr(tBu)-Thr(tBu)-Thr(tBu)-Arg(Pbf)-Asp-OBn”, in data set [2], the isolated mass came to 180 mg and the isolated yield stood at 10%.
As to “Acbz-Cys(StBu)-Gly-Lys(Me2)-Trp-Cys(StBu)-Pro-^HOGly-Lys(Acbz)-Asp-Pro-NH2”, in data set [3], the isolated mass is reported as 360 mg. In addition, in data set [3] (scale of the general procedure 250 to 300 mg resin per column), the isolated yield is reported as 39%.
Take “Acbz-Cys(StBu)-Gly-Lys(Me2)-Trp-Cys(StBu)-Pro-Lac-Lys(Acbz-Thz)-Asp-Pro-NH2”: in data set [1] (scale 160 mg resin per column), the isolated mass is reported as 184.6 mg. This substance yielded an isolated yield in data set [1] of 24%.
In data set [4] (scale 80.9 μmol), Ac-Trp-D-Cys(StBu)-MeGly-^HOGly-Ala-OH displayed an isolated mass of 36.5 mg and an isolated yield of 71%.
As to “A[NMeL][NMeA]T[Sar][NMeV]AF[NMeL]LD[NMeF]A-Piperidide (lactam N-11; SMILES CC(C)C[C@@H]1NC(=O)[C@H](CC(C)C)N(C)C(=O)[C@H](Cc2ccccc2)NC(=O)[C@H](C)NC(=O)[C@H](C(C)C)N(C)C(=O)CN(C)C(=O)[C@H]([C@@H](C)O)NC(=O)[C@H](C)N(C)C(=O)[C@H](CC(C)C)N(C)C(=O)[C@H](C)NC(=O)C[C@@H](C(=O)N(C)[C@@H](Cc2ccccc2)C(=O)N[C@@H](C)C(=O)N2CCCCC2)NC1=O)”, the isolated yield in data set [5] is recorded as 5%. Further, in data set [6], the isolated mass was 4.27 mg.
As to Ac-WC(StBu)P[PhLac]A-OH, in data set [4] (scale 80.9 μmol), the isolated mass was 51.2 mg and the isolated yield is 84%.
In data set [4] (scale 80.9 μmol), Ac-Trp-Cys(StBu)-Pro-^HOGly(Me)2-Ala-OH yielded an isolated mass of 46.4 mg and an isolated yield of 83%.
In data set [4] (scale 20.2 μmol), Ac-Trp-D-Cys(StBu)-Pro-^HOGly-Ala-OH came in with an isolated mass of 3.0 mg and an isolated yield of 22%.
For the substance Ac-Trp-Cys(StBu)-MeGly-^HOGly-Ala-OH, in data set [4] (scale 80.9 μmol), the isolated mass came to 26.7 mg and the isolated yield turned out to be 52%.
